Taken from: PubChem BioAssay AID1159578 (Peter MacCallum Cancer Centre, 2015)

Purpose: 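Genome-wide hunt for genes controlling movement of lymphatic endothelial cells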 (primary screen)
Cell system: human lymphatic endothelial cells
Knock-down reagent: siRNA pool against human genes, 40 nM
Time to read-out: 48 h after transfection
Measurement: 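High-content imaging of dye-stained cells in a scratch assay measures filled wound area and nuclei per well; duplicate means given as ratio to mock and robust z-score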
Reading the numbers: migration robust z-score: higher = faster migration into the scratch; migration relative to mock: higher = more scratch area covered than mock; nuclei per well: higher = more cells in the well
Call rule: 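Pools averaging fewer than 3300 nuclei are never called; remaining pools count as changed when migration robust z lies outside -2 to 2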
Meaning of the calls: active = migration changed; inactive = no migration change, or too few cells
The whole screen tested about 18,000 reagents; below is a random part of them. About 1,030 of all reagents (5.7%) were called active. 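Inactive calls also include pools with fewer than 3300 nuclei, whose migration was not assessed.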 Raw values are not corrected between plates.

gene symbol	migration robust z-score	migration class with cell-count check	migration relative to mock	nuclei per well, duplicate mean	outcome
ST8SIA3 (GeneID 51046)	-0.83	migration z between -2 and 2; enough cells	0.64	6463	inactive
LMNA (GeneID 4000)	0.16	migration z between -2 and 2; enough cells	0.84	6588	inactive
TAF8 (GeneID 129685)	-0.42	migration z between -2 and 2; enough cells	0.78	6606	inactive
CCL21 (GeneID 6366)	-1.12	migration z between -2 and 2; enough cells	0.59	4762	inactive
CALM2 (GeneID 805)	-2.02	migration z below -2; enough cells	0.42	3513	active
JAG2 (GeneID 3714)	0.13	migration z between -2 and 2; enough cells	0.83	6546	inactive
ACYP2 (GeneID 98)	0.49	migration z between -2 and 2; enough cells	0.9	5670	inactive
ELK4 (GeneID 2005)	0.05	migration z between -2 and 2; enough cells	0.82	5622	inactive
FBXO15 (GeneID 201456)	-1.2	migration z between -2 and 2; enough cells	0.57	5686	inactive
SPHK1 (GeneID 8877)	0.1	migration z between -2 and 2; enough cells	0.82	4903	inactive
PUS7L (GeneID 83448)	1.74	migration z between -2 and 2; enough cells	1.33	5066	inactive

A run of entries from the list above, for reference:
gene symbol	migration robust z-score	migration class with cell-count check	migration relative to mock	nuclei per well, duplicate mean	outcome
JAG2 (GeneID 3714)	0.13	migration z between -2 and 2; enough cells	0.83	6546	inactive
ACYP2 (GeneID 98)	0.49	migration z between -2 and 2; enough cells	0.9	5670	inactive
ELK4 (GeneID 2005)	0.05	migration z between -2 and 2; enough cells	0.82	5622	inactive

The listing continues.
gene symbol	migration robust z-score	migration class with cell-count check	migration relative to mock	nuclei per well, duplicate mean	outcome
STX10 (GeneID 8677)	0.66	migration z between -2 and 2; enough cells	1.05	6604	inactive
GJA8 (GeneID 2703)	0.83	migration z between -2 and 2; enough cells	0.97	6108	inactive
FAU (GeneID 2197)	-1.48	migration z between -2 and 2; enough cells	0.5	5575	inactive
BARHL2 (GeneID 343472)	0.98	migration z between -2 and 2; enough cells	1.14	5720	inactive
GSPT1 (GeneID 2935)	2.56	migration z above 2; enough cells	1.3	5588	active
CENPN (GeneID 55839)	-1.01	migration z between -2 and 2; enough cells	0.62	5717	inactive
DLG4 (GeneID 1742)	-4.72	under 3300 nuclei; migration not judged	-0.1	3036	inactive
CABP5 (GeneID 56344)	-0.88	migration z between -2 and 2; enough cells	0.66	5038	inactive
CAND1 (GeneID 55832)	1.4	migration z between -2 and 2; enough cells	1.07	6150	inactive
PRDM16 (GeneID 63976)	1.64	migration z between -2 and 2; enough cells	1.12	6500	inactive
SCT (GeneID 6343)	-0.56	migration z between -2 and 2; enough cells	0.74	4806	inactive
LOC644006 (GeneID 644006)	-1.77	migration z between -2 and 2; enough cells	0.46	5500	inactive
